These results are taken from the supplement of paper PMC11098740.

Structures can show the parent of a compound that is named as a salt. ± gives the standard deviation of the averaged measurements. The list shows a part of the results. Repeats are few or missing, and single values can be far off.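 The assay uses a mixed pool of 41 HAP1 clones in which 61 cancer-associated proteins bear intron-inserted fluorescent tags, and clones are distinguished by image pattern. Results are compared against DMSO-treated control wells, and the BRD4 degrader dBET6 is the positive control.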

For this test, the target named is BRD4 (intron 10 mScarlet tag, HAP1) (UniProt O60885). The test can be described thus: BRD4 median nuclear fluorescence intensity change vs DMSO (log2 fold change); higher = more BRD4 protein. To be noted: 6 h.
As for `C[C@]12C=CC(=O)N[C@@H]1CC[C@@H]1[C@@H]2CC[C@]2(C)[C@@H](C(=O)Nc3cc(C(F)(F)F)ccc3C(F)(F)F)CC[C@@H]12` [dutasteride] (9.99927 µM), the “BRD4 median nuclear fluorescence intensity change (log2)” value is 0.149.

`CN(Cc1cnc2nc(N)nc(N)c2n1)c1ccc(C(=O)N[C@@H](CCC(=O)O)C(=O)O)cc1` [methotrexate] (0.04575 µM): the “BRD4 median nuclear fluorescence intensity change (log2)” value was -0.0283.

`C#CCC(Cc1cnc2nc(N)nc(N)c2n1)c1ccc(C(=O)N[C@@H](CCC(=O)O)C(=O)O)cc1` (stereo not given in full) [pralatrexate] (0.0871 µM): the “BRD4 median nuclear fluorescence intensity change (log2)” value was -0.0234 ± 0.045.

Turning to `COc1cc2ncnc(Nc3ccc(F)c(Cl)c3)c2cc1OCCCN1CCOCC1` [gefitinib] (20 µM), the “BRD4 median nuclear fluorescence intensity change (log2)” value was 0.147.

With `CC(=O)Oc1ccccc1C(=O)Nc1ncc([N+](=O)[O-])s1` [nitazoxanide] (10 µM), the “BRD4 median nuclear fluorescence intensity change (log2)” value was -0.0748.

For `CC(=O)O[C@@]12CO[C@@H]1C[C@H](O)[C@@]1(C)C(=O)[C@H](O)C3=C(C)[C@@H](OC(=O)[C@H](O)[C@@H](NC(=O)OC(C)(C)C)c4ccccc4)C[C@@](O)([C@@H](OC(=O)c4ccccc4)[C@H]21)C3(C)C` [docetaxel] (0.00463667 µM), the “BRD4 median nuclear fluorescence intensity change (log2)” value was 0.0104.

With `Cn1nnc2c(C(N)=O)ncn2c1=O` [temozolomide] (20 µM), the “BRD4 median nuclear fluorescence intensity change (log2)” value is -0.00164.

With `CCCSc1ccc2[nH]c(NC(=O)OC)nc2c1` [albendazole] (10 µM), the “BRD4 median nuclear fluorescence intensity change (log2)” value is -0.0171.

With `O=c1[nH]cc(F)c(=O)[nH]1` [5-fluorouracil] (20 µM), the “BRD4 median nuclear fluorescence intensity change (log2)” value is -0.0207.

Regarding `CCCCCCCCCCCCCCCCCCOP(=O)([O-])OC1CC[N+](C)(C)CC1` [perifosine] (20 µM), the “BRD4 median nuclear fluorescence intensity change (log2)” value turned out to be 0.117.

Regarding `CNC[C@H](O)c1ccc(O)c(O)c1` [epinephrine] (10 µM), the “BRD4 median nuclear fluorescence intensity change (log2)” value came out at 0.174.

Consider `CN1CC2c3ccccc3Oc3ccc(Cl)cc3C2C1` (stereo not given) [asenapine] (10.00077168 µM), for which the “BRD4 median nuclear fluorescence intensity change (log2)” value turned out to be 0.116.

For `CN(C)C/C=C/C(=O)Nc1cc2c(Nc3ccc(F)c(Cl)c3)ncnc2cc1O[C@H]1CCOC1` [afatinib] (10 µM), the “BRD4 median nuclear fluorescence intensity change (log2)” value was 0.0558.

`CC1(C)C[C@@H]1C(=O)N/C(=C\CCCCSC[C@H](N)C(=O)O)C(=O)O` [cilastatin] (10 µM): the “BRD4 median nuclear fluorescence intensity change (log2)” value is -0.0309.

`C[N+](C)(C)CCOC(=O)CCC(=O)OCC[N+](C)(C)C` [succinylcholine chloride] (10 µM): the “BRD4 median nuclear fluorescence intensity change (log2)” value was -0.019.

As to `CN(C)CC[C@@H](c1ccc(Cl)cc1)c1ccccn1` [dexchlorpheniramine] (10.00011514 µM), the “BRD4 median nuclear fluorescence intensity change (log2)” value was determined as 0.0657.

Consider `CNNCc1ccc(C(=O)NC(C)C)cc1` [procarbazine] (20 µM), for which the “BRD4 median nuclear fluorescence intensity change (log2)” value was 0.122.

`S=c1nc[nH]c2nc[nH]c12` [6-mercaptopurine] (10.0013 µM): the “BRD4 median nuclear fluorescence intensity change (log2)” value amounted to 0.0164.

In the case of `Nc1ccn([C@H]2CC[C@@H](COP(=O)(O)OP(=O)(O)OP(=O)(O)O)O2)c(=O)n1` [dideoxycytidine 5'-triphosphate (ddctp)] (10 µM), the “BRD4 median nuclear fluorescence intensity change (log2)” value was determined as 0.173.

On to `CO[C@H]1C[C@@H]2CC[C@@H](C)[C@@](O)(O2)C(=O)C(=O)N2CCCC[C@H]2C(=O)O[C@H]([C@H](C)C[C@@H]2CC[C@@H](OCCO)[C@H](OC)C2)CC(=O)[C@H](C)/C=C(\C)[C@@H](O)[C@@H](OC)C(=O)[C@H](C)C[C@H](C)/C=C/C=C/C=C/1C` [everolimus] (20 µM), for which the “BRD4 median nuclear fluorescence intensity change (log2)” value was -0.00641.

With `Nc1nc(N)c2nc(-c3ccccc3)c(N)nc2n1` [triamterene] (9.99945 µM), the “BRD4 median nuclear fluorescence intensity change (log2)” value worked out at 0.0677.

As for `Cc1ncsc1-c1ccc(CNC(=O)[C@@H]2C[C@@H](O)CN2C(=O)[C@@H](NC(=O)C2(F)CC2)C(C)(C)C)c(OCCOc2ccc(CN3CCN(c4cc(-c5ccccc5O)nnc4N)CC3)cc2)c1` [acbi1] (0.1 µM), the “BRD4 median nuclear fluorescence intensity change (log2)” value stood at 0.0431.

As for `CCCCCCCN(CC)CCCC(O)c1ccc(NS(C)(=O)=O)cc1` (stereo not given) [ibutilide] (10.00092008 µM), the “BRD4 median nuclear fluorescence intensity change (log2)” value is 0.209.

In the case of `CC(C)C(=O)Nc1ccc([N+](=O)[O-])c(C(F)(F)F)c1` [flutamide] (20 µM), the “BRD4 median nuclear fluorescence intensity change (log2)” value is -0.11.

For `NCCCC(N)(C(=O)O)C(F)F` (stereo not given) [eflornithine] (10 µM), the “BRD4 median nuclear fluorescence intensity change (log2)” value came out at 0.113.

For the compound `C[C@]1(c2nc3c(C(N)=O)cccc3[nH]2)CCCN1` [veliparib] (10 µM), the “BRD4 median nuclear fluorescence intensity change (log2)” value was found to be 0.0433.

With `COc1cc([C@@H]2c3cc4c(cc3[C@@H](O[C@@H]3O[C@@H]5CO[C@@H](C)O[C@H]5[C@H](O)[C@H]3O)[C@H]3COC(=O)[C@H]23)OCO4)cc(OC)c1O` [etoposide] (20 µM), the “BRD4 median nuclear fluorescence intensity change (log2)” value stood at 0.137.

Consider `NC[C@H]1CC[C@H](C(=O)O)CC1` [tranexamic acid] (10 µM), for which the “BRD4 median nuclear fluorescence intensity change (log2)” value was 0.07.

In the case of `CC(=O)O[C@]1(C(C)=O)CC[C@H]2[C@@H]3CCC4=CC(=O)CCC4=C3[C@@H](c3ccc(N(C)C)cc3)C[C@@]21C` [ulipristal acetate] (9.99909 µM), the “BRD4 median nuclear fluorescence intensity change (log2)” value was 0.0406.

Turning to `CO[C@H]1O[C@@H]2O[C@@]3(C)CC[C@H]4[C@H](C)CC[C@@H]([C@H]1C)[C@@]24OO3` [artemether] (10 µM), the “BRD4 median nuclear fluorescence intensity change (log2)” value was found to be 0.0669.

In the case of `CN1C(CCl)Nc2cc(Cl)c(S(N)(=O)=O)cc2S1(=O)=O` (stereo not given) [methyclothiazide] (9.99974 µM), the “BRD4 median nuclear fluorescence intensity change (log2)” value turned out to be 0.0791.

Consider `CC[C@]1(O)C[C@@H]2CN(CCc3c([nH]c4ccccc34)[C@@](C(=O)OC)(c3cc4c(cc3OC)N(C)[C@H]3[C@@](O)(C(N)=O)[C@H](O)[C@]5(CC)C=CCN6CC[C@]43[C@@H]65)C2)C1` [vindesine sulfate] (10 µM), for which the “BRD4 median nuclear fluorescence intensity change (log2)” value came to 0.025.

Take `Nc1cccc2c1CN(C1CCC(=O)NC1=O)C2=O` (stereo not given) [lenalidomide] (4.1665 µM): the “BRD4 median nuclear fluorescence intensity change (log2)” value is -0.0944.

As to `CC1=Nc2ccc(Cl)cc2S(=O)(=O)N1` [diazoxide] (10 µM), the “BRD4 median nuclear fluorescence intensity change (log2)” value was -0.0197.

Consider `O=C1CC2(CCCC2)CC(=O)N1CCCCN1CCN(c2ncccn2)CC1` [buspirone] (10 µM), for which the “BRD4 median nuclear fluorescence intensity change (log2)” value is 0.0855.

Turning to `C1=N/C2=N/c3ccc(OCCN4CCCC4)c(c3)COC/C=C/COCc3cccc(c3)C(=C1)N2` [pacritinib] (10 µM), the “BRD4 median nuclear fluorescence intensity change (log2)” value was -0.0445.

Consider `O=C(c1ccc(OCCN2CCCCC2)cc1)c1c(-c2ccc(O)cc2)sc2cc(O)ccc12` [raloxifene] (20 µM), for which the “BRD4 median nuclear fluorescence intensity change (log2)” value came out at 0.0692.

For the compound `Cc1cn[nH]c1` [fomepizole] (10 µM), the “BRD4 median nuclear fluorescence intensity change (log2)” value amounted to 0.126.

Consider `NC(=O)c1cnccn1` [pyrazinamide] (10 µM), for which the “BRD4 median nuclear fluorescence intensity change (log2)” value was determined as 0.101.

For the compound `Cc1ccccc1C(=O)Nc1ccc(C(=O)N2CCCC(O)c3cc(Cl)ccc32)c(C)c1` (stereo not given) [tolvaptan] (10 µM), the “BRD4 median nuclear fluorescence intensity change (log2)” value was found to be 0.0926.
